Test results published in patent publication US20250075147A1, “FRAGRANCE AND FLAVOR COMPOSITIONS COMPRISING NEW FLAVOR AND FRAGRANCE INGREDIENTS” (priority 2023, published 2025).

Columns and labels:
[1] = Evaluation by trained and/or certified flavor or fragrance chemists or master perfumers; categorization by commercial prospect; conditions: evaluation by trained flavor or fragrance chemists or master perfumers
[2] = system: odor evaluation panel; experiment: Odor evaluation panel rating of odorants by Rate-All-That-Apply (RATA) method with 55-word odor lexicon, plus intensity and pleasantness; parameters: species or system human; conditions: for Floral: mean panelist score for odor label floral (RATA); for Fruity: mean panelist score for odor label fruity (RATA); for Spicy: mean panelist score for odor label spicy (RATA); for Sweet: mean panelist score for odor label sweet (RATA); for Pleasantness: mean panelist score for odor pleasantness

## CC1=NN(C)C(=O)C1 [Compound 601, 2,5-dimethyl-4H-pyrazol-3-one]
[1]
  Rating (category of commercial prospect): (D)
[2]
  Floral: 0
  Fruity: 0
  Spicy: 0.121
  Sweet: 0.273
  Pleasantness: 5.924

## NC1CCCCC1O (centres unmarked) [Compound 604, 2-aminocyclohexan-1-ol]
[1]
  Rating (category of commercial prospect): (D)
[2]
  Floral: 0.094
  Fruity: 0
  Spicy: 0.031
  Sweet: 0
  Pleasantness: 3.619

## CCOC(=O)c1csc(C)n1 [Compound 607, ethyl 2-methyl-1,3-thiazole-4-carboxylate]
[1]
  Rating (category of commercial prospect): (D)
[2]
  Floral: 0.086
  Fruity: 0
  Spicy: 0.343
  Sweet: 0.143
  Pleasantness: 4.689

## C1=C(c2ccccc2)CCCC1 [Compound 611, cyclohexen-1-ylbenzene]
[1]
  Rating (category of commercial prospect): (D)
[2]
  Floral: 1.156
  Fruity: 0.188
  Spicy: 0.406
  Sweet: 0.656
  Pleasantness: 5.197

## C=CCC1CCCCC1=O (centres unmarked) [Compound 613, 2-prop-2-enylcyclohexan-1-one]
[1]
  Rating (category of commercial prospect): (A)
[2]
  Floral: 0.062
  Fruity: 0.094
  Spicy: 0
  Sweet: 1.125
  Pleasantness: 5.119

## Cn1ccnc1 [Compound 620, 1-methylimidazole]
[1]
  Rating (category of commercial prospect): (D)
[2]
  Floral: 0.194
  Fruity: 0.083
  Spicy: 0
  Sweet: 0.361

## CN1CCCC1CCO (centres unmarked) [Compound 625, 2-(1-methylpyrrolidin-2-yl)ethanol]
[1]
  Rating (category of commercial prospect): (D)
[2]
  Floral: 0.061
  Fruity: 0
  Spicy: 0.061
  Sweet: 0.152
  Pleasantness: 5.952

## CCCCCC1CCC(=O)CC1 [Compound 627, 4-pentylcyclohexan-1-one]
[1]
  Rating (category of commercial prospect): (D)
[2]
  Floral: 0.353
  Fruity: 0.529
  Spicy: 0
  Sweet: 0.559
  Pleasantness: 5.056

## CC(C)C1CCC(C(=O)O)CC1 (centres unmarked) [Compound 630, 4-propan-2-ylcyclohexane-1-carboxylic acid]
[1]
  Rating (category of commercial prospect): (D)
[2]
  Floral: 0
  Fruity: 0
  Spicy: 0.647
  Sweet: 0.235
  Pleasantness: 3.144

## CCOC(=O)CN(C)C [Compound 631, ethyl 2-(dimethylamino)acetate]
[1]
  Rating (category of commercial prospect): (D)
[2]
  Floral: 0.156
  Fruity: 0
  Spicy: 0.125
  Sweet: 0.344
  Pleasantness: 2.303

## CCC(=O)c1cccc(O)c1 [Compound 634, 1-(3-hydroxyphenyl)propan-1-one]
[1]
  Rating (category of commercial prospect): (A)
[2]
  Floral: 0.226
  Fruity: 0.323
  Spicy: 0.161
  Sweet: 0.71
  Pleasantness: 4.326

## CC(C)(C)c1ccc(CS)cc1 [Compound 638, (4-tert-butylphenyl)methanethiol]
[1]
  Rating (category of commercial prospect): (D)
[2]
  Floral: 0
  Fruity: 0
  Spicy: 0.361
  Sweet: 0.083

## O=C(O)CC1CC1 [Compound 642, 2-cyclopropylacetic acid]
[1]
  Rating (category of commercial prospect): (D)
[2]
  Floral: 0
  Fruity: 0.75
  Spicy: 0.125
  Sweet: 1.219
  Pleasantness: 4.525

## COc1cc(C)cc(C)c1 [Compound 649, 1-methoxy-3,5-dimethylbenzene]
[1]
  Rating (category of commercial prospect): (D)
[2]
  Floral: 0.469
  Fruity: 0.188
  Spicy: 0.375
  Sweet: 0.531
  Pleasantness: 4.731

## CCC1=NCCO1 [Compound 660, 2-ethyl-4,5-dihydro-1,3-oxazole]
[1]
  Rating (category of commercial prospect): (A)
[2]
  Floral: 0.118
  Fruity: 0.059
  Spicy: 0.206
  Sweet: 0.588
  Pleasantness: 5.035

## CC(C)(C)NC=O [Compound 661, N-tert-butyl formamide]
[1]
  Rating (category of commercial prospect): (D)
[2]
  Floral: 0.25
  Fruity: 0.656
  Spicy: 0.156
  Sweet: 1
  Pleasantness: 5.862

## COc1ccc(O)c(C=O)c1 [Compound 663, 2-hydroxy-5-methoxybenzaldehyde]
[1]
  Rating (category of commercial prospect): (C)
[2]
  Floral: 0.281
  Fruity: 0.719
  Spicy: 0.625
  Sweet: 1.938
  Pleasantness: 5.628

## C=C(CC(=O)OCCCC)C(=O)OCCCC [Compound 665, dibutyl 2-methylidenebutanedioate]
[1]
  Rating (category of commercial prospect): (D)
[2]
  Floral: 0.028
  Fruity: 0.472
  Spicy: 0
  Sweet: 0.75

## CCO/C=C/C(=O)OCC [Compound 679, ethyl (E)-3-ethoxyprop-2-enoate]
[1]
  Rating (category of commercial prospect): (B)
[2]
  Floral: 0.906
  Fruity: 2.562
  Spicy: 0
  Sweet: 1.781
  Pleasantness: 6.528

## N#C/C=C/C1CCCC1 [Compound 680, (E)-3-cyclopentylprop-2-enenitrile]
[1]
  Rating (category of commercial prospect): (B)
[2]
  Floral: 0.028
  Fruity: 0.278
  Spicy: 0.417
  Sweet: 0.833

## O=C(O)CCCC[C@@H]1CCSS1 [Compound 692, 5-[(3R)-dithiolan-3-yl]pentanoic acid]
[1]
  Rating (category of commercial prospect): (D)
[2]
  Floral: 0
  Fruity: 0
  Spicy: 0.057
  Sweet: 0
  Pleasantness: 2.663

## CCCCC(O)CCCC [Compound 693, nonan-5-ol]
[1]
  Rating (category of commercial prospect): (B)
[2]
  Floral: 0.472
  Fruity: 2
  Spicy: 0.194
  Sweet: 1.5

## O=C1OC(=O)C2CC=CCC12 (centres unmarked) [Compound 694, 3a,4,7,7a-tetrahydro-2-benzofuran-1,3-dione]
[1]
  Rating (category of commercial prospect): (D)
[2]
  Floral: 0.083
  Fruity: 0
  Spicy: 0.028
  Sweet: 0

## CNc1ccccc1C(=O)O [Compound 698, 2-(methylamino)benzoic acid]
[1]
  Rating (category of commercial prospect): (D)
[2]
  Floral: 0.219
  Fruity: 0
  Spicy: 0.031
  Sweet: 0.375
  Pleasantness: 5.197

## CC(=O)OC1=CCCCC1 [Compound 699, cyclohexen-1-yl acetate]
[1]
  Rating (category of commercial prospect): (A)
[2]
  Floral: 0.771
  Fruity: 1.486
  Spicy: 0.171
  Sweet: 1.571
  Pleasantness: 5.903

## CCNC(=O)NCC [Compound 700, 1,3-diethylurea]
[1]
  Rating (category of commercial prospect): (D)
[2]
  Floral: 0.257
  Fruity: 0.086
  Spicy: 0.571
  Sweet: 0.143
  Pleasantness: 4.869

## CC(C)N(C=O)C(C)C [Compound 701, N,N-di(propan-2-yl)formamide]
[1]
  Rating (category of commercial prospect): (A)
[2]
  Floral: 0.2
  Fruity: 0.933
  Spicy: 0
  Sweet: 1.033
  Pleasantness: 5.737

## CC1(C)C(=O)C(C)(C)C1=O [Compound 702, 2,2,4,4-tetramethylcyclobutane-1,3-dione]
[1]
  Rating (category of commercial prospect): (D)
[2]
  Floral: 0.303
  Fruity: 0.758
  Spicy: 0.091
  Sweet: 0.636
  Pleasantness: 4.252

## CCOC(CC(OCC)OCC)OCC [Compound 703, 1,1,3,3-tetraethoxypropane]
[1]
  Rating (category of commercial prospect): (C)
[2]
  Floral: 0.25
  Fruity: 0.194
  Spicy: 0.083
  Sweet: 0.611

## N#CCCNc1ccccc1 [Compound 704, 3-anilinopropanenitrile]
[1]
  Rating (category of commercial prospect): (D)
[2]
  Floral: 0.125
  Fruity: 0.062
  Spicy: 0
  Sweet: 0.406
  Pleasantness: 5.003

## NCCSSCCN [Compound 709, 2-(2-aminoethyldisulfanyl)ethanamine]
[1]
  Rating (category of commercial prospect): (D)
[2]
  Floral: 0.094
  Fruity: 0
  Spicy: 0.094
  Sweet: 0
  Pleasantness: 5.097

## CCC1=C(C)CNC1=O [Compound 710, 4-ethyl-3-methyl-1,2-dihydropyrrol-5-one]
[1]
  Rating (category of commercial prospect): (D)
[2]
  Floral: 0.143
  Fruity: 0.114
  Spicy: 0
  Sweet: 0.486
  Pleasantness: 5.183

## CC(C)(C)OC(=O)CCC(=O)O [Compound 711]
[1]
  Rating (category of commercial prospect): (D)
[2]
  Floral: 0.091
  Fruity: 0
  Spicy: 0
  Sweet: 0.273
  Pleasantness: 5.521

## Cc1cn[nH]c1C [Compound 713, 4,5-dimethyl-1H-pyrazole]
[1]
  Rating (category of commercial prospect): (C)
[2]
  Floral: 0.057
  Fruity: 0.029
  Spicy: 0.029
  Sweet: 1
  Pleasantness: 4.354

## Cc1csc(=S)[nH]1 [Compound 717, 4-methyl-3H-1,3-thiazole-2-thione]
[1]
  Rating (category of commercial prospect): (D)
[2]
  Floral: 0
  Fruity: 0
  Spicy: 0.636
  Sweet: 0.364
  Pleasantness: 5.785

## CC(=Cc1ccccc1)[N+](=O)[O-] [Compound 721, 1-phenyl-2-nitropropene]
[1]
  Rating (category of commercial prospect): (D)
[2]
  Floral: 0.543
  Fruity: 0.229
  Spicy: 1.971
  Sweet: 1.8
  Pleasantness: 6.391
